Source: patent US5686449A, “1,5-benzodiazepines useful as gastrinor CCK-antagonists” (priority 1994, dated 1997)
At least one structure is not confirmed: it was looked up by name or label, or the drawing left a doubt.

target: CCK-A receptor; assay: CCK receptor binding, CCK-A (Pancreas Assay)
Protocol: Exp & Ther. 261, 1056-1063, 1992.
The binding affinity of the compounds of the invention for the CCK-A receptor (Pancreas Assay) and CCK-B receptor (guinea pig cortex assay) was determined using the procedure of G Dal Forno et al J. Pharmacol. Exp & Ther. 261-1056-1063.

Compound | pKi CCK-A
CN1C(=O)C(NC(=O)Nc2ccccc2)C(=O)N(CC23CC4CC(CC(C4)C2)C3)c2ccccc21 (single isomer, unassigned; (-)) [Example 8, (-)-N-[1-(Adamantylmethyl)-2,4-dioxo-5-methyl-2,3,4,5-tetrahydro-1H-1,5-benzodiazepin-3-yl]-N'-phenylurea] | 6.4
O=C(Nc1ccccc1)NC1C(=O)N(CCO)c2ccccc2N(CC23CC4CC(CC(C4)C2)C3)C1=O (single isomer, unassigned; (-)) [Example 11, (-)-N-[1-(Adamantylmethyl)-2,4-dioxo-5-(2-hydroxyethyl)-2,3,4,5-tetrahydro-1H-1,5-benzodiazepin-3-yl]-N'-phenylurea] | 6.14
O=C(Nc1ccccc1)NC1C(=O)N(CCO)c2ccccc2N(CC23CC4CC(CC(C4)C2)C3)C1=O (stereo not drawn) [Example 9, N-[1-(Adamantylmethyl)-2,4-dioxo-5-(2-hydroxyethyl)-2,3,4,5-tetrahydro-1H-1,5-benzodiazepin-3-yl]-N'-phenylurea] | 6.49
